Consider 36 compounds from the supplement of paper PMC8256030.

Assay [1] concerns SARS-CoV-2 -1 PRF reporter mCherry-FSE-GFP(-1). The experiment in a line: mCherry (red) intensity as percent of control; higher = higher upstream reporter expression. The conditions noted are these: 10 µM; 24 h; HEK293T.
For assay [2] the test system is unchanged. As to the kind of experiment: percent effect, decrease of GFP/mCherry ratio (-1 PRF reporter) relative to controls; higher = stronger frameshift inhibition. Conditions: 10 µM; 24 h; HEK293T.

Molecules are shown by their SMILES. Values joined by “and” are separate entries in the source; they are usually repeats but may differ in a detail not shown here. Identical values can stand only once. This is one part of the list. Single values are uncertain here, since repeats match poorly.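 HEK293T cells were given each compound shortly before transfection with a reporter in which red mCherry is followed by the SARS-CoV-2 frameshift element and then GFP in the −1 frame, so GFP appears only after frameshifting.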

The compound `CCCCCCCCCCCCCCCC(=O)OC[C@@H](NC(=O)C(Cl)Cl)[C@H](O)c1ccc([N+](=O)[O-])cc1` had a mCherry in assay [1] of 130%. For the same compound, the percent effect in assay [2] worked out at 4.97%.

In assay [1], `C/C(=C\c1csc(C)n1)[C@@H]1C[C@@H]2O[C@]2(C)CCC[C@H](C)[C@H](O)[C@@H](C)C(=O)C(C)(C)[C@@H](O)CC(=O)N1` [ixabepilone] displayed a mCherry of 100%. Further, the percent effect in assay [2] is -12.2%.

The compound `CCCCCCCCCCCCC[N+](C)(C)Cc1ccccc1` had a mCherry in assay [1] of 75.5%. Moreover, in assay [2], the percent effect is -4.02%.

On to `CN(C)CCC(O)(c1ccccc1)c1ccccc1Cl` (configuration not stated) [clofedanol], for which the mCherry in assay [1] came out at 106%. Further, the percent effect in assay [2] is -3.01%.

For the compound `O=C(/C=C/c1ccc(CN(CCO)CCc2c[nH]c3ccccc23)cc1)NO` [dacinostat], the mCherry in assay [1] was 17.5%. In addition, the percent effect in assay [2] was -7.57%.

In assay [1], `CO/N=C/C1=CCCN(C)C1` [milameline] yielded a mCherry of 122%. In assay [2], the percent effect is -3.1%.

Compound `CC(C)Cc1ccc(CC(=O)O)cc1` [ibufenac] returned a mCherry in assay [1] of 106%. Besides, in assay [2], the percent effect was -0.849%.

`Nc1ncnc2c1ncn2[C@@H]1O[C@H](CO)[C@@H](O)[C@H]1O`: the mCherry in assay [1] came out at 86.5%. The percent effect in assay [2] was 0.169%.

In assay [1], `O=C1c2ccccc2C(=O)C1c1ccc(Cl)cc1` [clorindione] gave a mCherry of 105%. In addition, in assay [2], the percent effect is -0.283%.

As to `CN1CCC(=C2c3ccccc3Sc3ccccc32)CC1` [pimethixene], in assay [1], the mCherry is 166%. Moreover, in assay [2], the percent effect was -0.727%.

`O=C1C(N2CCCCC2)CCN1c1ccccc1` (configuration not stated) [felipyrine] registered a mCherry in assay [1] of 108%. In addition, in assay [2], the percent effect is -2.5%.

`C[C@@H]1CCC[C@H](C)N1NC(=O)c1ccc(Cl)c(S(N)(=O)=O)c1` [clopamide] displayed a mCherry in assay [1] of 91.9%. Further, the percent effect in assay [2] is -1.58%.

With `Cc1[nH]c2ccccc2c1C[C@@H](NC(=O)[C@@H](N)Cc1c[nH]cn1)C(=O)N[C@@H](C)C(=O)N[C@@H](Cc1c[nH]c2ccccc12)C(=O)N[C@H](Cc1ccccc1)C(=O)N[C@@H](CCCCN)C(N)=O` [examorelin], the mCherry in assay [1] is 121%. In addition, the percent effect in assay [2] is -0.624%.

Compound `CCN(CC)CCNC(=O)c1cc(S(C)(=O)=O)ccc1OC` [tiapride] had a mCherry in assay [1] of 125%. Further, in assay [2], the percent effect was determined as 1.78%.

In assay [1], `O=C(O)/C=C/c1ccc(Cn2ccnc2)cc1` [ozagrel] registered a mCherry of 117%. In assay [2], the percent effect is -0.902%.

In assay [1], `CCN(CC)C(=O)N1CCN(C)CC1` [diethylcarbamazine] showed a mCherry of 114%. In assay [2], the percent effect was -10.6%.

In assay [1], `COc1cc(C(=O)NCc2ccc(OCCN(C)C)cc2)cc(OC)c1OC` [trimethobenzamide] had a mCherry of 106%. Besides, the percent effect in assay [2] is -3.34%.

With `O=C1OC(CN2CCOCC2)CN1/N=C/c1ccc([N+](=O)[O-])o1` (configuration not stated), in assay [1], the mCherry came to 82.8%. The percent effect in assay [2] turned out to be 2.3%.

`NS(=O)(=O)c1ccc(-n2nc(C(F)(F)F)cc2-c2ccc(F)cc2)cc1` [mavacoxib]: the mCherry in assay [1] worked out at 43.6%. Moreover, in assay [2], the percent effect is -1.81%.

In assay [1], `CN(C)C(=N)NC(=N)N` [Metformin] showed a mCherry of 99.8%. The percent effect in assay [2] was -1.58%.

For the compound `CC(N/C(=N\C#N)Nc1ccncc1)C(C)(C)C` (configuration not stated) [pinacidil], in assay [1], the mCherry stood at 83.1%. Besides, in assay [2], the percent effect is -1.64%.

`O=C(O)CCc1nc2ccccc2[nH]1` [procodazole] had a mCherry in assay [1] of 105%. The percent effect in assay [2] is -0.538%.

For the compound `Cc1cc(C)cc(NC(=O)Cc2ccc(OC(C)(C)C(=O)O)cc2)c1` [efaproxiral], in assay [1], the mCherry was 99.6%. Besides, the percent effect in assay [2] was -1.36%.

For `COc1ccc2cc([C@H](C)C(=O)O)ccc2c1` [Naproxen], the mCherry in assay [1] turned out to be 101%. The percent effect in assay [2] was determined as 1.47%.

In the case of `CCCOc1ccc(C(=O)OCCN(CC)CC)cc1N`, the mCherry in assay [1] worked out at 97.1%. In assay [2], the percent effect is -2%.

As to `Oc1ccc(C2CNCCc3c2cc(O)c(O)c3Cl)cc1` (configuration not stated), the mCherry in assay [1] was found to be 53.8%. Besides, the percent effect in assay [2] was -1.83%.

Turning to `O=C(O)c1ccc(-n2nc(-c3ccccc3O)nc2-c2ccccc2O)cc1` [deferasirox], in assay [1], the mCherry amounted to 99.2%. In assay [2], the percent effect is -7.33%.

`CC(=O)SCC(Cc1ccccc1)C(=O)NCC(=O)OCc1ccccc1` (configuration not stated) [racecadotril]: the mCherry in assay [1] is 98.2% and 99.9%. Also, the percent effect in assay [2] was -1.62% and 1.51%.

In assay [1], `CC1(C)O[C@@H]2C[C@H]3[C@@H]4CCC5=CC(=O)C=C[C@]5(C)[C@@]4(F)[C@@H](O)C[C@]3(C)[C@]2(C(=O)CO)O1` showed a mCherry of 110%. Besides, in assay [2], the percent effect was determined as 0.211%.

`C/N=C(/NC#N)NCCSCc1csc(NC(=N)N)n1` [tiotidine] registered a mCherry in assay [1] of 114%. Moreover, in assay [2], the percent effect was -4.27%.

In turn, `O=C(CCCCCl)NNC(=O)N1Cc2ccccc2Oc2ccc(Cl)cc21` [pinadoline] displayed a mCherry in assay [1] of 83.5%. Besides, the percent effect in assay [2] was -10.5%.

Turning to `CN1C(C)(C)CCCC1(C)C`, the mCherry in assay [1] was 89.7%. Also, the percent effect in assay [2] was -0.308%.

In the case of `CSCC[C@H](NC(=O)[C@H](Cc1c[nH]c2ccccc12)NC(=O)CCNC(=O)OC(C)(C)C)C(=O)N[C@@H](CC(=O)O)C(=O)N[C@@H](Cc1ccccc1)C(N)=O`, in assay [1], the mCherry stood at 117%. Moreover, the percent effect in assay [2] was -1.62%.

Regarding `COc1ccc(/C=C/C(=O)Nc2ccccc2C(=O)O)cc1OC` [tranilast], in assay [1], the mCherry turned out to be 104%. Moreover, the percent effect in assay [2] is -3.44%.

`Cc1onc(-c2ccccc2)c1C(=O)N[C@@H]1C(=O)N2[C@@H]1SC(C)(C)[C@@H]2C(=O)O`: the mCherry in assay [1] amounted to 133%. In addition, the percent effect in assay [2] worked out at 0.605%.

For the compound `CC1(C)S[C@@H]2[C@H](NC(=O)Cc3ccccc3)C(=O)N2[C@H]1C(=O)O`, in assay [1], the mCherry was determined as 98.1%. Also, the percent effect in assay [2] was -1.03%.
